The list does not hold the whole screen: it is rich in T/C values a quarter to a half above the control, in often repeated tests (any T/C) and in doses without a T/C. Other doses and runs of a compound stand elsewhere. T/C is the treated group as % of the vehicle group. Where survival is the endpoint, the PubChem record calls one and a half times the control and up active, and a quarter to a half above the control has no call in these data; cut-offs in other NCI protocols can differ. Schedules are NCI's codes, taken here to give the interval after Q, in days (D) or hours (H), and the number of doses after X. Some doses were run more than once; the results are listed from low to high. Brackets with × count equal records among those shown. Some schedules carry Z or #; the key to these is not given. Some T/C values carry the count of animals alive at the toxicity check (mostly the fifth day); where none is given, no animal had died by that day.
Tested on: L1210 leukemia ip in BDF1 mice, survival T/C
Test: NCI In Vivo Anticancer Drug Screen. Data for tumor model L1210 Leukemia (intraperitoneal) in B6D2F1 (BDF1) mice
Conditions: T/C endpoint: mean survival time, higher T/C = longer survival

What does the source list for S=c1nc[nH]c2nc[nH]c12?
T/C (dose: 60.0 mg/kg/injection, schedule: Q08DX002 (ip), vehicle: saline): 126 % of control; T/C (dose: 60.0 mg/kg/injection, schedule: Q#B X015 (ip), vehicle: saline): 142 % of control; T/C (dose: 64.0 mg/kg/injection, schedule: Q04DX002 (ip), vehicle: alkali diluted with saline): 106, 107, 108, 121 % of control; T/C (dose: 65.0 mg/kg/injection, schedule: Q01DX009 (ip), vehicle: other): 140 % of control; T/C (dose: 67.0 mg/kg/injection, schedule: Q01DX015 (ip), vehicle: other): 125 and 146 % of control; T/C (dose: 67.5 mg/kg/injection, schedule: Q12HX006 (ip), vehicle: alkali diluted with saline): 137 % of control; T/C (dose: 70.0 mg/kg/injection, schedule: Q01DX001 (ip), vehicle: other): 127, 140, 165, 177 % of control; T/C (dose: 74.0 mg/kg/injection, schedule: Q02DX010 (ip), vehicle: carboxymethylcellulose (CMC)): 148 % of control; T/C (dose: 74.25 mg/kg/injection, schedule: Q02DX010 (ip), vehicle: carboxymethylcellulose (CMC)): 110, 156, 160, 170, 186 % of control; T/C (dose: 75.0 mg/kg/injection, schedule: Q01DX015 (ip), vehicle: alkali diluted with saline): 145 % of control; T/C (dose: 75.0 mg/kg/injection, schedule: Q02DX010 (ip), vehicle: carboxymethylcellulose (CMC)): 144, 151, 153, 161 % of control; T/C (dose: 75.0 mg/kg/injection, schedule: Q02DX010 (ip), vehicle: other): 124, 153, 167, 180 % of control; T/C (dose: 76.5 mg/kg/injection, schedule: Q02DX010 (ip), vehicle: carboxymethylcellulose (CMC)): 119, 120, 146 (2×), 162 % of control; T/C (dose: 80.0 mg/kg/injection, schedule: Q01DX005 (ip), vehicle: alkali diluted with water): 132, 133, 138 % of control; T/C (dose: 80.0 mg/kg/injection, schedule: Q01DX005 (ip), vehicle: other): 118, 122, 131, 142, 145, 147, 155, 156, 159, 162, 165, 167, 170 % of control; T/C (dose: 80.0 mg/kg/injection, schedule: Q01DX006 (iv), vehicle: other): 146 % of control [5 of 6 alive]; T/C (dose: 80.0 mg/kg/injection, schedule: Q01DX009 (oral), vehicle: saline with Tween-80): 133 % of control; T/C (dose: 80.0 mg/kg/injection, schedule: Q01DX010 (ip), vehicle: alkali diluted with saline): 128, 146, 148, 157 % of control; T/C (dose: 80.0 mg/kg/injection, schedule: Q01DX Z (im), vehicle: other): 126 % of control; T/C (dose: 80.0 mg/kg/injection, schedule: Q01DX Z (oral), vehicle: other): 148 % of control; T/C (dose: 80.0 mg/kg/injection, schedule: Q01DX Z (sc), vehicle: other): 142 % of control; T/C (dose: 85.6 mg/kg/injection, schedule: Q02DX010 (ip), vehicle: carboxymethylcellulose (CMC)): 128 % of control; T/C (dose: 90.0 mg/kg/injection, schedule: Q01DX005 (ip), vehicle: saline, evaluated on day 30): 126 and 134 % of control; T/C (dose: 90.0 mg/kg/injection, schedule: Q01DX005 (ip), vehicle: saline, evaluated on day 35): 152 % of control; T/C (dose: 90.0 mg/kg/injection, schedule: Q01DX005 (ip), vehicle: saline, evaluated on day 60): 129 % of control; T/C (dose: 90.0 mg/kg/injection, schedule: Q01DX009 (ip), vehicle: acetone): 132 % of control; T/C (dose: 90.0 mg/kg/injection, schedule: Q01DX009 (ip), vehicle: alkali diluted with saline, evaluated on day 5): 151 and 178 % of control; T/C (dose: 90.0 mg/kg/injection, schedule: Q01DX009 (ip), vehicle: alkali diluted with saline, evaluated on day 45): 180 and 236 % of control; T/C (dose: 90.0 mg/kg/injection, schedule: Q01DX009 (ip), vehicle: alkali diluted with saline, evaluated on day 60): 150 % of control; T/C (dose: 90.0 mg/kg/injection, schedule: Q01DX009 (ip), vehicle: saline): 140 % of control; T/C (dose: 90.0 mg/kg/injection, schedule: Q01DX015 (ip), vehicle: alkali diluted with saline, evaluated on day 5): 138, 140, 142, 143, 152, 164, 170, 173, 177, 186, 191 % of control; T/C (dose: 90.0 mg/kg/injection, schedule: Q01DX015 (ip), vehicle: alkali diluted with saline, evaluated on day 35): 170 % of control; T/C (dose: 90.0 mg/kg/injection, schedule: Q01DX015 (ip), vehicle: alkali diluted with saline, evaluated on day 45): 138, 143, 165, 186, 191 % of control; T/C (dose: 90.0 mg/kg/injection, schedule: Q01DX015 (ip), vehicle: alkali diluted with saline, evaluated on day 46): 149 % of control; T/C (dose: 90.0 mg/kg/injection, schedule: Q01HX006 (ip), vehicle: saline): 143 % of control; T/C (dose: 90.0 mg/kg/injection, schedule: Q02DX008 (ip), vehicle: alkali diluted with saline): 134 % of control

— PubChem BioAssay AID248 (DTP/NCI, 2004)
